Consider 42 sequences from PMC7819943, “Rice protein-binding microarrays: a tool to detect cis-acting elements near promoter regions in rice”.

Some of the results follow.

For this experiment, the target named is T1, OsSMF1 (Oryza sativa, UniProt Q6ZLB0 1-436).
T1 sequence: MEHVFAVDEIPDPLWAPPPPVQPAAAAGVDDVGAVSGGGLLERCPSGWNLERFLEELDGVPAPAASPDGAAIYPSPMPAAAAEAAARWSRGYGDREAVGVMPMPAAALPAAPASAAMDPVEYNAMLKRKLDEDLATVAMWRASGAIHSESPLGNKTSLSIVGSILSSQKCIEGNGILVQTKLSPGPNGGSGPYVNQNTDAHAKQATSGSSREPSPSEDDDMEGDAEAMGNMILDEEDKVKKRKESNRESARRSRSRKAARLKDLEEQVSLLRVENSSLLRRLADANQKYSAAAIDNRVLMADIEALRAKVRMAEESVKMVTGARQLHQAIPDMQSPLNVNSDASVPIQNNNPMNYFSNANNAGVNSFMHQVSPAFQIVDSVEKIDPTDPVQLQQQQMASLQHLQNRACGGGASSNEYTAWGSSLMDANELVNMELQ
Description: protein-binding microarray (RPBM); PBS, 2% BSA, 51.3 ng/ul salmon testes DNA, 50 uM zinc acetate, 200 nM TF, 25 C, 1 h; high values mean tight binding. To be noted: protein: recombinant; tags: N-terminal polyhistidine and DsRed monomer fusion (pET32a); chain copies: 2; label: CyDye5-dUTP incorporated in the synthesized complementary strand; 3' TTTTT single-stranded linker to array surface; dsDNA, one strand shown. In a few lines:
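A custom Agilent array was converted to double-stranded form by primer extension with Cy5-dUTP and blocked with 2% BSA. Protein at 200 nM in PBS with 2% BSA, salmon testes DNA and 50 µM zinc acetate was applied for 1 h at 25 °C, followed by washing. The proteins were polyhistidine–DsRed N-terminal fusions of transcription factors, expressed in E. coli BL21-CodonPlus and Ni–NTA-purified. The binding signal is per-feature fluorescence intensity (arbitrary units) from an Axon 4000B scanner.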
In the case of “CCATCTGTAGTATAGTATGTCTACACACACACACACACACCGGAGTCACCTAGTGCAG”, the binding signal is 3720 fluorescence intensity (a.u.).

On to “AGCGTGCAGAATCTAGTTATAGTCAGCTTGTTATGCATCCCGGAGTCACCTAGTGCAG”, for which the binding signal is 26900 fluorescence intensity (a.u.).

Consider “TTAACTTGGAATAGCCATACAGCCTTGCCAGCAATTGCATCGGAGTCACCTAGTGCAG”, for which the binding signal was 3950 fluorescence intensity (a.u.). The value for “CTGAGATACTCGCCATCTGATTTCCTAGGCGAGATGGCGTCGGAGTCACCTAGTGCAG” was 21200 fluorescence intensity (a.u.).

Take “ACGCTCACACATGCACACTCACAACCCTATAAACACCTCTCGGAGTCACCTAGTGCAG”: the binding signal was 4250 fluorescence intensity (a.u.).

On to “TTTGGTTTCTTAATTCTGAGTCCTTTCTTTCGTCACACTCCGGAGTCACCTAGTGCAG”, for which the binding signal is 3240 fluorescence intensity (a.u.).

As for “CCAAACTGAAAGTACTTTATGTCATATTGTCATGGGCTTACGGAGTCACCTAGTGCAG”, the binding signal is 5040 fluorescence intensity (a.u.). For “AAGCGCAGGCACGCCACGCGTCGTCACTCGTCACGGTGCCCGGAGTCACCTAGTGCAG”, the binding signal is 5750 fluorescence intensity (a.u.). The value for “TGGATGGAATTGGGACATATTTCTACCTTTCCCTATCTTTCGGAGTCACCTAGTGCAG” was 28200 fluorescence intensity (a.u.); that for “TTTGGGCGTAGTCATGCTGAGTAAGCATGAAAGAGTAAGCCGGAGTCACCTAGTGCAG” was 3240 fluorescence intensity (a.u.); that for “AAGCGATCGGGGCGGCGGAGGAGGTGGGTGGGAGGGAGGGCGGAGTCACCTAGTGCAG” was 7690 fluorescence intensity (a.u.). The value for “ATACGCTAAGCATCCTATCGCAAGTTCGAAGCACCTTTGCCGGAGTCACCTAGTGCAG” was 3580 fluorescence intensity (a.u.); that for “GTGGGATGACGGGACGTGGGCTGGGGTTGGCCTGGGCTGACGGAGTCACCTAGTGCAG” was 3520 fluorescence intensity (a.u.). For “GGTGTGGAGGGGTTGGACCAGAGCACGACGACGGCGAGGACGGAGTCACCTAGTGCAG”, the binding signal is 45100 fluorescence intensity (a.u.).

Regarding “AGAAAAGAAAAGAAAAGAAATTGACGTCACCATTTGTCCCCGGAGTCACCTAGTGCAG”, the binding signal is 13400 fluorescence intensity (a.u.). As for “ATTATACTATAATTACTCCATCCGTACTCGTAATGACAATCGGAGTCACCTAGTGCAG”, the figure is 3180 fluorescence intensity (a.u.). As for “GGAAGAAGGGAGGTGAGGCTGACATATGGGGCCCACGTGACGGAGTCACCTAGTGCAG”, the figure is 3510 fluorescence intensity (a.u.). On to “GCCAATCTCGACGTGCGCTACCGCTGCTGCACCTCCGTGCCGGAGTCACCTAGTGCAG”, for which the binding signal was 3290 fluorescence intensity (a.u.). “TTTCACGAACTAAACATGCCTTATCAGAACCGAACAAACCCGGAGTCACCTAGTGCAG”: the binding signal is 3330 fluorescence intensity (a.u.).

As to “GCCTGTCGTAACCCCTTGCGTGGCGCCGGTCCTCTCCGCCCGGAGTCACCTAGTGCAG”, the binding signal is 5300 fluorescence intensity (a.u.). As for “CTGCAGTTTGCCTTTAAGTCTCAGTAACTTGCTGAGTTGGCGGAGTCACCTAGTGCAG”, the binding signal was 9010 fluorescence intensity (a.u.).

Turning to “GTTCGCAACTCGCCGTCTCCAAAAGATAAAGGGAAAACGGCGGAGTCACCTAGTGCAG”, the binding signal is 4000 fluorescence intensity (a.u.).

Regarding “TCTTAACACTCCTTTGAAGAGATATGTACATCAAACATAACGGAGTCACCTAGTGCAG”, the binding signal is 3190 fluorescence intensity (a.u.).

“CTTGCGACCTTAGCGCTTATTGGCGCCAACAAGGTAACTTCGGAGTCACCTAGTGCAG”: the binding signal is 3190 fluorescence intensity (a.u.). Consider “ATTCATATATATGGTAATGAATCTAGACATACATGTGAGCCGGAGTCACCTAGTGCAG”, for which the binding signal was 23900 fluorescence intensity (a.u.).

Regarding “TTTTAGACCCAAACCCTCAAATTTTCTAAGCAAAATAGTTCGGAGTCACCTAGTGCAG”, the binding signal is 26900 fluorescence intensity (a.u.).

As for “CAAAATTTGCCTAAACTTATCCCGCGGTCGCTCGTCCCTACGGAGTCACCTAGTGCAG”, the binding signal was 18000 fluorescence intensity (a.u.). As for “AATGGAGTTTGTGGAACACATTGGCCATGAGTTTTGCAGCCGGAGTCACCTAGTGCAG”, the figure is 3210 fluorescence intensity (a.u.); as for “GATGACGATGACCGGAGGGCACCACCATGACGCGCACCACCGGAGTCACCTAGTGCAG”, 35700 fluorescence intensity (a.u.).

Regarding “CGCCGGCACAGCGACATAGCTGACGTCGACGATGCTCACTCGGAGTCACCTAGTGCAG”, the binding signal was 5350 fluorescence intensity (a.u.). As to “AATTATTGCTGGTGAATAATGATGGGTCATGTTTTCATGTCGGAGTCACCTAGTGCAG”, the binding signal was 3400 fluorescence intensity (a.u.).

With “GCAAGAGCCGAGAGGGCCACGTGGCGCGATCCCATTGGTTCGGAGTCACCTAGTGCAG”, the binding signal was 12100 fluorescence intensity (a.u.). For the sequence “TGTGGTGTGTGTGTGGCTGAAACCGCGAGGCCGCCGCGAGCGGAGTCACCTAGTGCAG”, the binding signal was 3440 fluorescence intensity (a.u.). The value for “ATTGAATAAACGTCAGTACGTCACCAAGTACTTTGATTCGCGGAGTCACCTAGTGCAG” was 4440 fluorescence intensity (a.u.). Consider “TAGGACAAAGCTAGAATGACACGTAGTAATTTGGAACGGACGGAGTCACCTAGTGCAG”, for which the binding signal was 3200 fluorescence intensity (a.u.). For the sequence “AAGGTTTGGAACATTCTGTTACCTATGAATACTGCACAGGCGGAGTCACCTAGTGCAG”, the binding signal was 11700 fluorescence intensity (a.u.). Take “CTAGCTCCCGGTGTGTCACCGGTCTATAAGAGGCCCCTGTCGGAGTCACCTAGTGCAG”: the binding signal was 4560 fluorescence intensity (a.u.). On to “CCGGCGTGGCCCATCCATCCGTCCGAGTCATCCCGCAAAACGGAGTCACCTAGTGCAG”, for which the binding signal is 6340 fluorescence intensity (a.u.). The value for “GCCGCCGCCGCCGGAGAAGATGATGGTGCCGCTGGATCCGCGGAGTCACCTAGTGCAG” was 43500 fluorescence intensity (a.u.); that for “CGAGCTCTGTTCGTACCGCGCGCTCCGGTGCGGAGTGGTTCGGAGTCACCTAGTGCAG” was 3230 fluorescence intensity (a.u.); that for “ACCGGATTAGCCGGTCGGTGACGCTCCATGATTTGGCGCTCGGAGTCACCTAGTGCAG” was 4130 fluorescence intensity (a.u.).

For “GAGCTTATATAGCTGAAACAGGGGAAGGAGGATGGGGTTTCGGAGTCACCTAGTGCAG”, the binding signal was 3390 fluorescence intensity (a.u.).
